Results are given in words; binding and its absence hold for the method and conditions named. For some assays here: Binding seen in cells or lysates may run through a third protein. Some entries that bind do so weakly or less than the wild type. Where a sequence is shown, tags or fusion partners need not be part of it.

By UniProt entry, the sequences of proteins in these tests, tags left out.
UniProt P67775: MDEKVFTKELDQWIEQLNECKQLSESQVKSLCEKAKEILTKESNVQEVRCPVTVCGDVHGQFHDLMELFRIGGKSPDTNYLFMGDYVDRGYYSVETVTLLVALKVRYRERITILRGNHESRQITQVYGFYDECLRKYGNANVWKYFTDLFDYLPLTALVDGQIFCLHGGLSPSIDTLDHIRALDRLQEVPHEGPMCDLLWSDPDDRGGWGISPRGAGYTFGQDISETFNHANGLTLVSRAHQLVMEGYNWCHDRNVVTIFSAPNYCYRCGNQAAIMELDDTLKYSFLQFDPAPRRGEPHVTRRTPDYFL

In assay [1] the target is T1, inhibitor of nuclear factor kappa B kinase subunit beta (IKBKB), FLAG-tagged (UniProt O14920).
T1 sequence: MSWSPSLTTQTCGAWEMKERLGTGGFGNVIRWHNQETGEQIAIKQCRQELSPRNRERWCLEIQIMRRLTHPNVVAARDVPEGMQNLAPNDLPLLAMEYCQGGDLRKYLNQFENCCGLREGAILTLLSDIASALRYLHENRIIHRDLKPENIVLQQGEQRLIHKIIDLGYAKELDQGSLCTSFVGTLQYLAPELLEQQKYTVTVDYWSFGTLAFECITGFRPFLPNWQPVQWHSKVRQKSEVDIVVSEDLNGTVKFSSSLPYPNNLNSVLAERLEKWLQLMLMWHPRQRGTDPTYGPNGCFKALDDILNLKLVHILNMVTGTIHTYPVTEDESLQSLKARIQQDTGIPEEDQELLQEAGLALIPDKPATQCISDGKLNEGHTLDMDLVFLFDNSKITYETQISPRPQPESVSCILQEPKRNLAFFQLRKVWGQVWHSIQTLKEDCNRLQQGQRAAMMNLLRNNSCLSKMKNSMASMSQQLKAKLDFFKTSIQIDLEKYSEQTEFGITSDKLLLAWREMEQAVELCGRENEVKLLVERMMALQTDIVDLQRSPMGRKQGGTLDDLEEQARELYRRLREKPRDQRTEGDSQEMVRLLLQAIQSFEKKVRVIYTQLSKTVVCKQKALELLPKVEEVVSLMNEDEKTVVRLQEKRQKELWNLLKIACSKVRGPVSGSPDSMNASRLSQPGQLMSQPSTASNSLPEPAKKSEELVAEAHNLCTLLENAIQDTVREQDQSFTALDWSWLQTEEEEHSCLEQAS
In words: co-IP; lysates of HEK293T cells overexpressing IKBKB-FLAG; anti-FLAG (mouse) antibody on Dynabeads Protein G, unrelated anti-GFAP antibody as mock; blot with anti-FLAG and anti-PP2A.

Assay [2] concerns the target protein phosphatase 2A (PP2A), endogenous (human (endogenous in HEK293T)) (UniProt P67775). The experiment in a line: ELISA; anti-PP2A as capture antibody on the plate, anti-FLAG-D2 as detection antibody; HEK293T lysates transfected with or without IKBKB-FLAG; 1 h at RT; read on the Erenna Immunoassay System. (In general: An ELISA detects its analyte on a solid surface through an enzyme-linked reagent.)

On to “protein phosphatase 2A (PP2A), endogenous (from UniProt P67775 1-309) (enzyme)”, for which the binding result in assay [1] was “binds”.

B1: inhibitor of nuclear factor kappa B kinase subunit beta (IKBKB), FLAG-tagged (enzyme, UniProt O14920 1-756)
chain: MSWSPSLTTQTCGAWEMKERLGTGGFGNVIRWHNQETGEQIAIKQCRQELSPRNRERWCLEIQIMRRLTHPNVVAARDVPEGMQNLAPNDLPLLAMEYCQGGDLRKYLNQFENCCGLREGAILTLLSDIASALRYLHENRIIHRDLKPENIVLQQGEQRLIHKIIDLGYAKELDQGSLCTSFVGTLQYLAPELLEQQKYTVTVDYWSFGTLAFECITGFRPFLPNWQPVQWHSKVRQKSEVDIVVSEDLNGTVKFSSSLPYPNNLNSVLAERLEKWLQLMLMWHPRQRGTDPTYGPNGCFKALDDILNLKLVHILNMVTGTIHTYPVTEDESLQSLKARIQQDTGIPEEDQELLQEAGLALIPDKPATQCISDGKLNEGHTLDMDLVFLFDNSKITYETQISPRPQPESVSCILQEPKRNLAFFQLRKVWGQVWHSIQTLKEDCNRLQQGQRAAMMNLLRNNSCLSKMKNSMASMSQQLKAKLDFFKTSIQIDLEKYSEQTEFGITSDKLLLAWREMEQAVELCGRENEVKLLVERMMALQTDIVDLQRSPMGRKQGGTLDDLEEQARELYRRLREKPRDQRTEGDSQEMVRLLLQAIQSFEKKVRVIYTQLSKTVVCKQKALELLPKVEEVVSLMNEDEKTVVRLQEKRQKELWNLLKIACSKVRGPVSGSPDSMNASRLSQPGQLMSQPSTASNSLPEPAKKSEELVAEAHNLCTLLENAIQDTVREQDQSFTALDWSWLQTEEEEHSCLEQAS
In the case of B1, in assay [2], the binding result is “binds”.

Values taken from PMC10410066.
